The entries are a selection whose mix differs from that of the whole data set. Small differences around the control level are noise.
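Also: lysate desalted by size exclusion to strip endogenous ATP, peptide intensities built from DIA-NN precursor signals, and peptides missing any value discarded before comparison.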

Chains of the proteins cited; added tags and fusions are not shown. Lines headed by an entry give the natural chain unless they say otherwise; changes in a name come on top.
UniProt P75973: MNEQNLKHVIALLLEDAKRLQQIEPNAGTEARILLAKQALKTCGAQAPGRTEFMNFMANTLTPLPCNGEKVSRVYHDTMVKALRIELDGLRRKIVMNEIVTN
UniProt P76445: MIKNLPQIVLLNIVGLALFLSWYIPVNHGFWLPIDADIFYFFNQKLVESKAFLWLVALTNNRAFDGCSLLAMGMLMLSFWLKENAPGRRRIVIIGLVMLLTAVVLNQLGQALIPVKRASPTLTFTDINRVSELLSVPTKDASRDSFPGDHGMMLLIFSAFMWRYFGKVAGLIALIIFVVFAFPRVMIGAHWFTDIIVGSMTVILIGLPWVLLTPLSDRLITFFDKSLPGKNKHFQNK
UniProt P75797: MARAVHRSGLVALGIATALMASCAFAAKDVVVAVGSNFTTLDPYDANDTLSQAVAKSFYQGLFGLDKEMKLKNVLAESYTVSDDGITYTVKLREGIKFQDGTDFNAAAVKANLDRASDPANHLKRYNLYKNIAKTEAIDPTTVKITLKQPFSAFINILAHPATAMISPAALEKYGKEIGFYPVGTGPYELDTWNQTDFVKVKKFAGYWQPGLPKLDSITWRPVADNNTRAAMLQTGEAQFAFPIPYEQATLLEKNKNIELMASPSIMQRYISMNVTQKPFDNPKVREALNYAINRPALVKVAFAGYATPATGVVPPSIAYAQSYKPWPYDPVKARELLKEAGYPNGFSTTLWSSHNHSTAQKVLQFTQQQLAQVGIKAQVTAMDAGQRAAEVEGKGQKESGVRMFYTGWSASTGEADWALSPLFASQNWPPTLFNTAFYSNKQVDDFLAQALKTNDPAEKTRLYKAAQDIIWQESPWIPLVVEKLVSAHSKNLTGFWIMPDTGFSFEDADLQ
UniProt P75839: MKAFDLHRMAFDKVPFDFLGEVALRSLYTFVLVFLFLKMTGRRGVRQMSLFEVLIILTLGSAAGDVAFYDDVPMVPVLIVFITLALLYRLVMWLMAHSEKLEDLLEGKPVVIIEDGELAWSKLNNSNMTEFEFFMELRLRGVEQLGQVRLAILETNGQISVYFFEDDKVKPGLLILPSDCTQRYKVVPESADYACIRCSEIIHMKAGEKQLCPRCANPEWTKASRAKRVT
UniProt P75791: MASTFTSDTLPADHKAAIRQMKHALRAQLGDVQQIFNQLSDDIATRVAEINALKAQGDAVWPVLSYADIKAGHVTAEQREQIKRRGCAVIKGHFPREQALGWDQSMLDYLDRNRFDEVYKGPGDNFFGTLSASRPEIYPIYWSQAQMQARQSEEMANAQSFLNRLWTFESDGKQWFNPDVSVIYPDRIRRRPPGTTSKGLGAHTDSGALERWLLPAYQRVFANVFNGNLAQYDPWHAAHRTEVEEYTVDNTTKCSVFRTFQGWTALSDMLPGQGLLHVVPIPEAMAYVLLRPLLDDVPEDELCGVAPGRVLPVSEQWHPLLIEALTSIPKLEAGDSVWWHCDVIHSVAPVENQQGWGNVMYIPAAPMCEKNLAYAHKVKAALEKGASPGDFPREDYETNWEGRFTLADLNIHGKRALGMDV
UniProt P75793: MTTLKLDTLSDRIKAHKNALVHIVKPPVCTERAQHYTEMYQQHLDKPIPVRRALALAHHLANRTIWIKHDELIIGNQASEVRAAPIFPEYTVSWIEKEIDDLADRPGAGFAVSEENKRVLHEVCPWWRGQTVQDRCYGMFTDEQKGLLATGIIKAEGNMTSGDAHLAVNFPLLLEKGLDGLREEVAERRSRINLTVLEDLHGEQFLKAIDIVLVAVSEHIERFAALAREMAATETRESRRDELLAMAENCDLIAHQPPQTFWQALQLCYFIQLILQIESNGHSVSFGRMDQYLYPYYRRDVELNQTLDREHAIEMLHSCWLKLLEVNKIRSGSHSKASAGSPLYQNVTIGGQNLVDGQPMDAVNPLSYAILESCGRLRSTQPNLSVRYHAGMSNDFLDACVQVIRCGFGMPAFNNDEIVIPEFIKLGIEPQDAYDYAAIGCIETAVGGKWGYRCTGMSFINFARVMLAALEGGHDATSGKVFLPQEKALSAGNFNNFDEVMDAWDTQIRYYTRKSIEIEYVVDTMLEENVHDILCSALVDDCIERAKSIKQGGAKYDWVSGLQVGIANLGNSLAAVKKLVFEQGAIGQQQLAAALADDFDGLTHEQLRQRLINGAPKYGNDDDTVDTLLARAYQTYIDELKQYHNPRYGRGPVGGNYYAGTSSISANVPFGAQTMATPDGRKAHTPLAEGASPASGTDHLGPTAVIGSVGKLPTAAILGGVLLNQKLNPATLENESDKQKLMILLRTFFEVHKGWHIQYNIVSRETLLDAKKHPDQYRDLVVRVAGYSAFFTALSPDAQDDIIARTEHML
UniProt P76121: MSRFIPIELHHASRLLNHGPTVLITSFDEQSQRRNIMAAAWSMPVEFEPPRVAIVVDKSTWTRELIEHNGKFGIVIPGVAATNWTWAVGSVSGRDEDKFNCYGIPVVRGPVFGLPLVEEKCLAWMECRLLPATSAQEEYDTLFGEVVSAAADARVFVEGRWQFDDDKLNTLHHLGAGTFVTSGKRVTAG
UniProt P76561: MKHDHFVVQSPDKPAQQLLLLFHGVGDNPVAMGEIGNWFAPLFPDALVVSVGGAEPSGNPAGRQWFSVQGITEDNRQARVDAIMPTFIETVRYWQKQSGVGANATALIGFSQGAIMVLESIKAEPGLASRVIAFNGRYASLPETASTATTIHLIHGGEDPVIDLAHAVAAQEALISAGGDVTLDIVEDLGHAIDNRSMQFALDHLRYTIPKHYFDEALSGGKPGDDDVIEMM
UniProt P76219: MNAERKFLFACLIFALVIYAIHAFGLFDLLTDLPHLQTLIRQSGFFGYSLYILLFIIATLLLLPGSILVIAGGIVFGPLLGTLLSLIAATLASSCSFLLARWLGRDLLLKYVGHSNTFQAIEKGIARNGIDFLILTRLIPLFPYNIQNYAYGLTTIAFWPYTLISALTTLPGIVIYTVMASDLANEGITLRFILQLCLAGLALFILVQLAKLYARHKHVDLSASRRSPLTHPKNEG
UniProt P76250: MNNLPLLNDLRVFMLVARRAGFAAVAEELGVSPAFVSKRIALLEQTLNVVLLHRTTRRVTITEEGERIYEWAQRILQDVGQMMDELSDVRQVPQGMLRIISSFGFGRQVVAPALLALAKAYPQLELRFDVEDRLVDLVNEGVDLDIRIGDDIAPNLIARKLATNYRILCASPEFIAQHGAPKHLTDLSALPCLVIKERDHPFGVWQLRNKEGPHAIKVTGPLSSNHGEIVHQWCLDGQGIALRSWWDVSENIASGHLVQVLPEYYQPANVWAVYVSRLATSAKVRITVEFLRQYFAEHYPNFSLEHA
UniProt P76555: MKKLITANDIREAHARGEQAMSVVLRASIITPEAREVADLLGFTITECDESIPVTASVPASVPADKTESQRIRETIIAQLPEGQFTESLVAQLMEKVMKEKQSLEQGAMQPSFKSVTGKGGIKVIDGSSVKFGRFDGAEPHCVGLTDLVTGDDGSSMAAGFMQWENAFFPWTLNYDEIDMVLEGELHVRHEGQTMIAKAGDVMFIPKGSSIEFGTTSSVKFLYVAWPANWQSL
UniProt P76227: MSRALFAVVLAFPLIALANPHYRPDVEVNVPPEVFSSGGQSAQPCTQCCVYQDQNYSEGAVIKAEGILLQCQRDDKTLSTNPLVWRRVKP
UniProt P76547: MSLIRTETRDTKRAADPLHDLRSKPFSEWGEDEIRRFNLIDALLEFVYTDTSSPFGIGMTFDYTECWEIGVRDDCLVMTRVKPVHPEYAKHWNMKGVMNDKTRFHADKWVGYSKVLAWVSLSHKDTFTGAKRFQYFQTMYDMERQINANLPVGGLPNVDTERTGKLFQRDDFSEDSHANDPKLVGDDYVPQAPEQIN
UniProt P76559: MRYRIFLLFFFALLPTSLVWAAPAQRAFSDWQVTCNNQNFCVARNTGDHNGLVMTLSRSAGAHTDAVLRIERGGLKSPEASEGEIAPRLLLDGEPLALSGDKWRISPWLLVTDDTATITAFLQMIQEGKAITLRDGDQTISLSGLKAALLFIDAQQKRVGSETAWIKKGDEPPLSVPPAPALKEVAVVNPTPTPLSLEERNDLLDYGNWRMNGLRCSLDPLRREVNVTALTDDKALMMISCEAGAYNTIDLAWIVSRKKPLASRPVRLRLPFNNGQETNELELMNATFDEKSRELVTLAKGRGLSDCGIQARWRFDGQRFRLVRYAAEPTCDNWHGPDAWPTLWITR
UniProt P76339: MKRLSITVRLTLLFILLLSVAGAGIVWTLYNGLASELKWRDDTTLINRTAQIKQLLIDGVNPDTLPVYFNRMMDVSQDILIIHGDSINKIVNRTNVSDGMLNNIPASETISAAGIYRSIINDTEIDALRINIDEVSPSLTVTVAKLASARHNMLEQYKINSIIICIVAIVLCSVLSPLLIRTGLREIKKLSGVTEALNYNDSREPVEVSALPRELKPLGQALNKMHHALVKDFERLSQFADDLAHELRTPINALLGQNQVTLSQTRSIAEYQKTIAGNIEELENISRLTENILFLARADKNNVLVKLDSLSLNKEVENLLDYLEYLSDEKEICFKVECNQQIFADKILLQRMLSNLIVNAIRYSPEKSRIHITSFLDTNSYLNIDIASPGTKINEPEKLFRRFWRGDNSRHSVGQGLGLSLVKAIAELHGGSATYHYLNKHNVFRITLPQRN
UniProt P76461: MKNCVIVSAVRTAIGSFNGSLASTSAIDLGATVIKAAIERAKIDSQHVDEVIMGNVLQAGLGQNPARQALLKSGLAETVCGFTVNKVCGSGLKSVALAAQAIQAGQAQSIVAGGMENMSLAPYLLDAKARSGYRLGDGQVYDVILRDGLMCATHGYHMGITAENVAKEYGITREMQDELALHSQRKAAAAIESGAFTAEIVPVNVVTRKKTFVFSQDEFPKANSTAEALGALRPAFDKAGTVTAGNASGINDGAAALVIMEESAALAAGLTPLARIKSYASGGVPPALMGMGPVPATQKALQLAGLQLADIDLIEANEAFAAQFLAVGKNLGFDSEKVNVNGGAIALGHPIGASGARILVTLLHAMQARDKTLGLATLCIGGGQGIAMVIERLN
UniProt P76573: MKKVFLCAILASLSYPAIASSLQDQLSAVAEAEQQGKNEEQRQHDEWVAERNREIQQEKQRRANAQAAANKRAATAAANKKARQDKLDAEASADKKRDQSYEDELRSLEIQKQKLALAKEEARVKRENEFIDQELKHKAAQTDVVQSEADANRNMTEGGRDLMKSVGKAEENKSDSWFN
UniProt P76016: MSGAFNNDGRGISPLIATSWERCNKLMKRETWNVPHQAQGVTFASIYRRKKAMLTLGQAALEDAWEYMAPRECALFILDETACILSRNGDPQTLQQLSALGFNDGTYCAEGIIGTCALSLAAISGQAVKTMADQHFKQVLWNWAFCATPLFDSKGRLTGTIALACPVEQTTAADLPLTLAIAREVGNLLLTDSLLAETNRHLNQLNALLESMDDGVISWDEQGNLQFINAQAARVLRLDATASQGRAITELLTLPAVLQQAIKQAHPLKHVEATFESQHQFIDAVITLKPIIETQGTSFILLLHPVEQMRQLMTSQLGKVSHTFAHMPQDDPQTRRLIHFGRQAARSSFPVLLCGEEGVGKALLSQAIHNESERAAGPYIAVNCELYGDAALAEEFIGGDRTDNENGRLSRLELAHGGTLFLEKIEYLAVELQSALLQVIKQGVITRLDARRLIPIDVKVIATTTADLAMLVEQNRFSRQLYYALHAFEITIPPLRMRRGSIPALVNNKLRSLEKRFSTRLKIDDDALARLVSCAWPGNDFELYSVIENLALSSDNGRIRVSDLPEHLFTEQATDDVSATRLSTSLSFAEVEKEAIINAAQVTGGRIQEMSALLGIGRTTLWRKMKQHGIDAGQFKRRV
UniProt P76063: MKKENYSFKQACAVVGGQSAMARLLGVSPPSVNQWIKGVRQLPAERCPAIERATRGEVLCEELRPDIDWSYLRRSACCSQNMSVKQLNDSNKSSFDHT
UniProt P67662: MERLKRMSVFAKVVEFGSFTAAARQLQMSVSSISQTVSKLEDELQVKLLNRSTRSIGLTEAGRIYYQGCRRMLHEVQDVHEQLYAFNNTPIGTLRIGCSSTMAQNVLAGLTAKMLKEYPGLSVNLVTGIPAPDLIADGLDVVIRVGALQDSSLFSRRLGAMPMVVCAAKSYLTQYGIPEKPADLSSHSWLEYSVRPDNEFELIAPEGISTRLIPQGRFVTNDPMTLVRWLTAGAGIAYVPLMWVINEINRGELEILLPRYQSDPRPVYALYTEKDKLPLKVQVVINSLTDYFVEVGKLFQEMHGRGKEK
UniProt P76231: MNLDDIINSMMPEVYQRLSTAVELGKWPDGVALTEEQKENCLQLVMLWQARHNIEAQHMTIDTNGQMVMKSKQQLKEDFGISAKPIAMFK
UniProt P76234: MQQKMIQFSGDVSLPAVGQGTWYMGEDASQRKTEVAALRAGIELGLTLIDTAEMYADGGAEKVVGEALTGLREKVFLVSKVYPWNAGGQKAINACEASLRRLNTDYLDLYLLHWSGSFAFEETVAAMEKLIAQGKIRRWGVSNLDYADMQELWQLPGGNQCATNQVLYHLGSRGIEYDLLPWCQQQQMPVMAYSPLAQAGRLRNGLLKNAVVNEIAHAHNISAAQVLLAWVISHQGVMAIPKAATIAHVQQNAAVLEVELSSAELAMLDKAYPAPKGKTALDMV

Compound in the assay: Nc1ncnc2c1ncn2[C@@H]1O[C@H](COP(=O)(O)OP(=O)(O)OP(=O)(O)O)[C@@H](O)[C@H]1O [adenosine 5'-triphosphate]
As to the kind of experiment: log2 fold change of tryptic peptide abundance, ligand vs vehicle (limited proteolysis) (log2 ratio); higher = more trypsin-susceptible (destabilized). The settings on record: ligand concentration: 5 mM; sample: E. coli desalted lysate; replicate design: treated before aliquoting. As for the experimental part:
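HT-PELSA: desalted E. coli K-12 BW25113 lysate (with 12 mM MgCl2) incubated with 5 mM ATP (pH 7) or water for 30 min at 25 C, then a 4 min trypsin pulse at 22 C. Peptides were quantified by DIA-MS (4 replicates). Value is the peptide log2 fold change (treated/control); negative = stabilized. Scale: negative = ligand-stabilized region.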
With “UniProt P76190 (peptide sequence: GTADHVGVYVGNGK, peptide start residue: 220)”, the log2 fold change turned out to be 1.11.
Take “UniProt P76083 (peptide sequence: GKLTAETCER, peptide start residue: 59)”: the log2 fold change is -0.4.
With “UniProt P75973 (peptide sequence: VYHDTMVK, peptide start residue: 74)”, the log2 fold change is -0.3.
In the case of “UniProt P76086 (peptide sequence: EGWLDVSR, peptide start residue: 67)” it was 0.671; in that of “UniProt P76445 (peptide sequence: VSELLSVPTK, peptide start residue: 130)”, 0.284; in that of “UniProt P75797 (peptide sequence: LDSITWRPVADNNTR, peptide start residue: 215)”, 0.529.
For “UniProt P76243 (peptide sequence: KAFHGEVVDYATFR, peptide start residue: 52)”, the log2 fold change was -0.292.
Turning to “UniProt P75839 (peptide sequence: CANPEWTK, peptide start residue: 215)”, the log2 fold change was determined as 0.536.
In the case of “UniProt P75791 (peptide sequence: AGHVTAEQR, peptide start residue: 71)” it was 0.439.
Consider “UniProt P75793 (peptide sequence: CYGMFTDEQK, peptide start residue: 136)”, for which the log2 fold change was -0.755.
For the target “UniProt P76121 (peptide sequence: CLAWMECR, peptide start residue: 121)”, the log2 fold change is -0.498.
In the case of “UniProt P75804 (peptide sequence: AEIWSYGIR, peptide start residue: 206)” it was -0.463; in that of “UniProt P76561 (peptide sequence: SMQFALDHLR, peptide start residue: 197)”, 0.0352.
Turning to “UniProt P76219 (peptide sequence: RSPLTHPK, peptide start residue: 226)”, the log2 fold change is -0.00722.
With “UniProt P77154 (peptide sequence: SDVAISCCCK, peptide start residue: 188)”, the log2 fold change is -0.541.
As to “UniProt P76250 (peptide sequence: QVVAPALLALAK, peptide start residue: 108)”, the log2 fold change was -0.312.
Take “UniProt P76114 (peptide sequence: QLDEINR, peptide start residue: 81)”: the log2 fold change worked out at 0.391.
Take “UniProt P69922 (peptide sequence: YGEDENNK, peptide start residue: 240)”: the log2 fold change is -0.328.
As for “UniProt P76555 (peptide sequence: HEGQTMIAK, peptide start residue: 190)”, the log2 fold change is -0.605.
Consider “UniProt P76108 (peptide sequence: AQHSLIHR, peptide start residue: 227)”, for which the log2 fold change stood at 0.505.
With “UniProt P76425 (peptide sequence: AHANDIKR, peptide start residue: 156)”, the log2 fold change is -0.628.
The figure for “UniProt P76227 (peptide sequence: AEGILLQCQRDDK, peptide start residue: 64)” is -0.474; for “UniProt P76547 (peptide sequence: FHADKWVGYSK, peptide start residue: 104)” it is -0.291.
For the target “UniProt P76575 (peptide sequence: KRVEFVLA, peptide start residue: 64)”, the log2 fold change came to 0.235.
Regarding “UniProt P76559 (peptide sequence: GLSDCGIQAR, peptide start residue: 303)”, the log2 fold change amounted to 0.475.
For “UniProt P76498 (peptide sequence: LLTLQSTGGVVEK, peptide start residue: 175)”, the log2 fold change worked out at 0.316.
Consider “UniProt P76339 (peptide sequence: ADKNNVLVK, peptide start residue: 298)”, for which the log2 fold change was -0.421.
Take “UniProt P76461 (peptide sequence: ANSTAEALGALRPAFDK, peptide start residue: 222)”: the log2 fold change came to 0.51.
As to “UniProt P76394 (peptide sequence: EEADELR, peptide start residue: 142)”, the log2 fold change is 0.291.
The figure for “UniProt P76573 (peptide sequence: LALAKEEAR, peptide start residue: 115)” is -0.81.
For the target “UniProt P76052 (peptide sequence: GIAAHAANSPHLGR, peptide start residue: 195)”, the log2 fold change stood at 0.911.
Take “UniProt P76016 (peptide sequence: EAIINAAQVTGGR, peptide start residue: 594)”: the log2 fold change is -0.563.
Consider “UniProt P76389 (peptide sequence: HDIEHIDLNAPEEEIR, peptide start residue: 310)”, for which the log2 fold change was -0.174.
“UniProt P75783 (peptide sequence: ELIDQLR, peptide start residue: 64)”: the log2 fold change worked out at 0.331.
Regarding “UniProt P75694 (peptide sequence: IHGTANIYKKK, peptide start residue: 81)”, the log2 fold change was 0.151.
For “UniProt P76063 (peptide sequence: QLPAERCPAIER, peptide start residue: 41)”, the log2 fold change was -0.333.
For “UniProt P67662 (peptide sequence: LEDELQVK, peptide start residue: 40)”, the log2 fold change came to 0.311.
For “UniProt P76231 (peptide sequence: HNIEAQHMTIDTNGQMVMK, peptide start residue: 52)”, the log2 fold change is -0.421.
In the case of “UniProt P75809 (peptide sequence: KYDDAMK, peptide start residue: 117)”, the log2 fold change was 0.239.
Take “UniProt P76234 (peptide sequence: AINACEASLR, peptide start residue: 91)”: the log2 fold change is -0.642.
